These are literature values, as cited in patent publication US12128011B2, “Therapeutically administrable high dose non-aqueous curcuminoid solutions” (priority 2019, dated 2024).

Each structure is given as a SMILES string.

For this series the following is noted: Chen, Propylene glycol based solution.

Consider `COc1cc(/C=C/C(=O)CC(=O)/C=C/c2ccc(O)c(OC)c2)ccc1O` [curcumin], for which the Solubility of curcumin entry is recorded as “approximately 1.5 mg/ml”.
